Experimental data published in US12391939B2, “Genetically-encoded bicyclic peptide libraries” (THE GOVERNORS OF THE UNIVERSITY OF ALBERTA, priority 2018, dated 2025).
Not every detail of the peptide structures is certain; ends, links or a residue may be inferred. Numbered stars: 1 amine (or outer) side, 2 acyl side, 3 side chain; on linkers, the order of the positions; unused ones are H or OH. Bridge positions count the residues as written; N and C are the ends. Peptide text beside a SMILES is read from it. X1 = O=C(C=NOCCCCCCOc1cc(C[*:2])cc(C[*:3])c1)[*:1]

Biological target: T1, Nodal (Homo sapiens, UniProt Q96S42)
T1 construct: host or cells: added to embryonic carcinoma P19 cells
T1 sequence (Q96S42 238-347): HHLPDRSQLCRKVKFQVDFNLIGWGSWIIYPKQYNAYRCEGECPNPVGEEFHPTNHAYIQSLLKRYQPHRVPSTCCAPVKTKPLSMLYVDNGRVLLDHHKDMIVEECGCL
Experiment: Inhibition of Nodal-induced Smad2 phosphorylation in P19 cells (Western blot, anti-phospho Smad antibody)
Type: cell-based
Conditions: for Nodal-induced pSmad2 phosphorylation, 100 μM bicyclic peptide: 100 ng/mL Nodal, 1 hour, 100 μM peptide; for inhibition of pSmad2 phosphorylation, 10 μM bicyclic peptide: Nodal, 10 μM peptide
Method: To validate the binding ability of the predicted ligands, we tested the ability of the bicycles to inhibit a known signaling event induced by Nodal. Specifically, we employed Western blot with anti-phospho Smad antibody to detect Nodal-induced phosphorylation of effector protein Smad2 in embryonic carcinoma P19 cells. FIG. 17a describes that treatment of P19 cells with 100 ng/mL Nodal for 1 hour in Dulbecco's Modified Eagles Media (DMEM) supplemented with 2.5% fetal bovine serum (FBS)+7.5% bovine serum albumin (BSA) induces increase in pSmad2 intensity. Nodal-induced increase in pSmad is abrogated when P19 cells are incubated with 100 ng/mL Nodal and known kinase inhibitors SB-431542. […] The bicyclic peptides serve as antagonists of Nodal at 100 micromolar concentration.

| SMILES | Nodal-induced pSmad2 phosphorylation, 100 μM bicyclic peptide | inhibition of pSmad2 phosphorylation, 10 μM bicyclic peptide |
| --- | --- | --- |
| C[C@@H]1NC(=O)[C@H](CCCNC(=N)N)NC(=O)[C@H](CCCCN)NC(=O)[C@@H]2CSCc3cc(cc(c3)OCCCCCCON=CC(=O)N[C@@H](Cc3ccc(O)cc3)C(=O)N2)CSC[C@@H](C(=O)O)NC(=O)[C@H](CC(N)=O)NC(=O)[C@H](CCCCN)NC(=O)[C@H](Cc2c[nH]cn2)NC1=O [compound 11] (YCKRAHKNC-OH; linker N-2-9 via X1; C-terminus assumed) | does not increase pSmad2 phosphorylation above the background level | inhibit pSmad2 phosphorylation |
| CSCC[C@@H]1NC(=O)[C@H](Cc2c[nH]cn2)NC(=O)CNC(=O)[C@H](CCCNC(=N)N)NC(=O)[C@H](CCC(N)=O)NC(=O)[C@@H]2CSCc3cc(cc(c3)OCCCCCCON=CC(=O)N3CCC[C@H]3C(=O)N2)CSC[C@@H](C(=O)O)NC(=O)[C@H](Cc2ccccc2)NC1=O [compound 7] (PCQRGHMFC-OH; linker N-2-9 via X1; C-terminus assumed) | does not increase pSmad2 phosphorylation above the background level | inhibit pSmad2 phosphorylation |
